# Results from the supplement of paper PMC4604168 (melanoma cell lines).
# This is one part of the list. Many values rest on one well or one pass, so single values are uncertain.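 The apoptosis fraction was the count of cleaved-PARP antibody-stained nuclei relative to all DNA-stained nuclei, imaged in 1,536-well plates. Screening doses were set so most cells survived, and baseline and induced cleaved-PARP levels vary greatly across cell lines.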
# What was measured:
# Test in all cases: cleaved PARP positive nuclei fraction relative to DMSO control; melanoma cells; higher = more apoptosis
# Conditions in all cases: library dose: low library concentration; 72 h
# MZ2-MEL = tested on: MZ2-MEL
# MeWo = tested on: MeWo
# RPMI7951 = tested on: RPMI7951
# RVH-421 = tested on: RVH-421
# SkMel28 = tested on: SkMel28
# SkMel2 = tested on: SkMel2
# SkMel30 = tested on: SkMel30
# SkMel5 = tested on: SkMel5
# UACC257 = tested on: UACC257
# UACC62 = tested on: UACC62
SMILES,cleaved PARP positive nuclei fraction (MZ2-MEL) [%],cleaved PARP positive nuclei fraction (MeWo) [%],cleaved PARP positive nuclei fraction (RPMI7951) [%],cleaved PARP positive nuclei fraction (RVH-421) [%],cleaved PARP positive nuclei fraction (SkMel28) [%],cleaved PARP positive nuclei fraction (SkMel2) [%],cleaved PARP positive nuclei fraction (SkMel30) [%],cleaved PARP positive nuclei fraction (SkMel5) [%],cleaved PARP positive nuclei fraction (UACC257) [%],cleaved PARP positive nuclei fraction (UACC62) [%]
"NC1(c2ccc(-c3nc4ccn5c(=O)[nH]nc5c4cc3-c3ccccc3)cc2)CCC1 + CC1(C)NC(=O)N(c2ccc([N+](=O)[O-])c(C(F)(F)F)c2)C1=O [nilutamide] (first compound 0.4 µM, partner dose 1 µM)",57.8,101,44,22.4,160,64.3,67,42.8,125,83.6
"CC(=O)O[C@@]12CO[C@@H]1C[C@H](O)[C@@]1(C)C(=O)[C@H](O)C3=C(C)[C@@H](OC(=O)[C@H](O)[C@@H](NC(=O)OC(C)(C)C)c4ccccc4)C[C@@](O)([C@@H](OC(=O)c4ccccc4)[C@H]21)C3(C)C [Docetaxel] + O=C(O)c1ccc(-c2c[nH]c3ncc(-c4ccccc4)cc23)cc1C1CCCC1 [GSK650394] (first compound 0.0001 µM, partner dose 0.16 µM)",559,482,187,154,519,628,187,51.7,321,364
"Cn1cnc2c(F)c(Nc3ccc(Br)cc3Cl)c(C(=O)NOCCO)cc21 [selumetinib] + COc1cc(Nc2ncc(F)c(Nc3ccc4c(n3)NC(=O)C(C)(C)O4)n2)cc(OC)c1OC [Tamatinib] (first compound 0.015 µM, partner dose 0.4 µM)",562,118,157,66.7,71.3,281,312,27.6,353,173
"COc1ccc(C2=N[C@@H](c3ccc(Cl)cc3)[C@@H](c3ccc(Cl)cc3)N2C(=O)N2CCNC(=O)C2)c(OC(C)C)c1 [Nutlin-3] + Cc1cc(N2CCOCC2)cc2[nH]c(-c3c(NC[C@@H](O)c4cccc(Cl)c4)cc[nH]c3=O)nc12 [BMS536924] (first compound 0.1 µM, partner dose 0.2 µM)",180,425,40.7,124,112,270,178,147,106,95.9
"NC1(c2ccc(-c3nc4ccn5c(=O)[nH]nc5c4cc3-c3ccccc3)cc2)CCC1 + Oc1nc(-c2ccc(C(F)(F)F)cc2)nc2c1CSCC2 [XAV939] (first compound 0.4 µM, partner dose 2 µM)",160,58.1,59.8,137,224,85.3,71.7,183,137,64.7
"COc1ccc(C2=N[C@@H](c3ccc(Cl)cc3)[C@@H](c3ccc(Cl)cc3)N2C(=O)N2CCNC(=O)C2)c(OC(C)C)c1 [Nutlin-3] + Cc1ccc(NC(=O)c2cccc(N(C)C)c2)cc1NC(=O)c1ccc(O)cc1 [ZM336372] (first compound 0.1 µM, partner dose 2 µM)",66,49.6,70.3,148,181,62.6,61.2,69.7,112,196
"C[C@]1(O)C[C@@H](c2nc(-c3ccc4ccc(-c5ccccc5)nc4c3)c3c(N)nccn32)C1 + CCN(CC)CCCCNc1ncc2cc(-c3cc(OC)cc(OC)c3)c(NC(=O)NC(C)(C)C)nc2n1 [PD173074] (first compound 0.4 µM, partner dose 0.1 µM)",53,204,152,20.9,75.8,83.6,161,214,68.2,38.1
"Cn1sc(=O)n(Cc2ccccc2)c1=O + O=C(CCCCCCC(=O)Nc1ccccc1)NO [vorinostat] (first compound 0.4 µM, partner dose 0.08 µM)",161,143,165,55.5,138,122,62.5,74.5,189,118
"CS(=O)(=O)c1ccc(C(=O)Nc2ccc(Cl)c(-c3ccccn3)c2)c(Cl)c1 [vismodegib] + Cn1cc(/C=C2\C(=O)Nc3cccnc32)c2ccccc21 [GW441756] (first compound 1 µM, partner dose 0.4 µM)",70.2,19.7,136,54.5,67.2,41.3,188,94.2,226,106
"NC(=O)c1ccc(N(C(N)=O)c2c(F)cccc2F)nc1-c1ccc(F)cc1F + CN(NC(=O)CC(=O)NN(C)C(=S)c1ccccc1)C(=S)c1ccccc1 [STA4783] (first compound 0.4 µM, partner dose 0.006 µM)",272,203,113,124,79.6,73.1,66.4,149,170,77.5
"C[C@@H](N)c1ccc(C(=O)Nc2ccnc3[nH]ccc23)cc1 + O=C(O)C(=O)Nc1sc2c(c1C(=O)O)CCNC2 [TCS401] (first compound 0.4 µM, partner dose 1.66667 µM)",147,110,76.7,74.8,366,117,134,81.1,108,180
"CC(=O)O[C@@]12CO[C@@H]1C[C@H](O)[C@@]1(C)C(=O)[C@H](O)C3=C(C)[C@@H](OC(=O)[C@H](O)[C@@H](NC(=O)OC(C)(C)C)c4ccccc4)C[C@@](O)([C@@H](OC(=O)c4ccccc4)[C@H]21)C3(C)C [Docetaxel] + CC1(C)NC(=O)N(c2ccc([N+](=O)[O-])c(C(F)(F)F)c2)C1=O [nilutamide] (first compound 0.0001 µM, partner dose 1 µM)",521,926,238,59.9,422,718,216,119,555,463
"CCCCCCCCc1ccc(CCC(N)(CO)CO)cc1 [fingolimod] + Cc1cc([N+](=O)[O-])ccc1NS(=O)(=O)c1cc(Cl)ccc1Cl [FH535] (first compound 2 µM, partner dose 1 µM)",177,53.7,146,107,135,64.4,82.7,95,136,58.1
"CCCCCCCCc1ccc(CCC(N)(CO)CO)cc1 [fingolimod] + Oc1cc(-c2nc(-c3ccccc3)[nH]c2-c2ccncc2)ccc1Cl [L779450] (first compound 2 µM, partner dose 0.2 µM)",239,115,176,36.8,239,49,181,155,91.5,234
"CCN(CC)CCNC(=O)c1c(C)[nH]c(/C=C2\C(=O)Nc3ccc(F)cc32)c1C [sunitinib] + CC(C)CCN1c2nc(Nc3cc(F)c(O)c(F)c3)ncc2N(C)C(=O)C1C [BID1870] (first compound 0.4 µM, partner dose 0.2 µM)",185,122,145,29.7,204,101,114,36.4,128,184
"CC(=O)O[C@@]12CO[C@@H]1C[C@H](O)[C@@]1(C)C(=O)[C@H](O)C3=C(C)[C@@H](OC(=O)[C@H](O)[C@@H](NC(=O)OC(C)(C)C)c4ccccc4)C[C@@](O)([C@@H](OC(=O)c4ccccc4)[C@H]21)C3(C)C [Docetaxel] + CC(C)CCN1c2nc(Nc3cc(F)c(O)c(F)c3)ncc2N(C)C(=O)C1C [BID1870] (first compound 0.0001 µM, partner dose 0.2 µM)",1410,263,96.3,146,1220,235,107,101,1580,640
"COc1ccc(C2=N[C@@H](c3ccc(Cl)cc3)[C@@H](c3ccc(Cl)cc3)N2C(=O)N2CCNC(=O)C2)c(OC(C)C)c1 [Nutlin-3] + C=CCn1c(=O)c2cnc(Nc3ccc(N4CCN(C)CC4)cc3)nc2n1-c1cccc(C(C)(C)O)n1 [MK1775] (first compound 0.1 µM, partner dose 0.02 µM)",97.6,66.8,48.8,44.6,81.5,135,220,33.2,79.1,209
"CN(c1ncccc1CNc1nc(Nc2ccc3c(c2)CC(=O)N3)ncc1C(F)(F)F)S(C)(=O)=O + CN(C)S(=O)(=O)c1ccc2c(c1)/C(=C/c1cc3c([nH]1)CCCC3)C(=O)N2 [SU6656] (first compound 0.08 µM, partner dose 0.4 µM)",131,73.2,145,139,255,65.4,73.2,97.1,69.6,121
"CCN(CC)CCNC(=O)c1c(C)[nH]c(/C=C2\C(=O)Nc3ccc(F)cc32)c1C [sunitinib] + CO[C@@H]1[C@H](N(C)C(=O)c2ccccc2)C[C@H]2O[C@]1(C)n1c3ccccc3c3c4c(c5c6ccccc6n2c5c31)C(=O)NC4 [Midostaurin] (first compound 0.4 µM, partner dose 0.08 µM)",47,182,40.5,86.2,171,82.1,79.3,130,147,90.6
"CCN(CC)CCNC(=O)c1c(C)[nH]c(/C=C2\C(=O)Nc3ccc(F)cc32)c1C [sunitinib] + COc1cc(Nc2ncc(F)c(Nc3ccc4c(n3)NC(=O)C(C)(C)O4)n2)cc(OC)c1OC [Tamatinib] (first compound 0.4 µM, partner dose 0.4 µM)",71.5,43.8,69,118,94.9,125,81.4,31.1,48.9,122
"NC1(c2ccc(-c3nc4ccn5c(=O)[nH]nc5c4cc3-c3ccccc3)cc2)CCC1 + O=C(Nc1cccc(Cl)c1)Nc1ncc(CCNc2ncnc3ccsc23)s1 [SNS314] (first compound 0.4 µM, partner dose 0.0008 µM)",155,72.1,59.1,224,252,42.2,66.4,72.1,322,222

# Whole records from above. Values in the order: cleaved PARP positive nuclei fraction (MZ2-MEL) [%] | cleaved PARP positive nuclei fraction (MeWo) [%] | cleaved PARP positive nuclei fraction (RPMI7951) [%] | cleaved PARP positive nuclei fraction (RVH-421) [%] | cleaved PARP positive nuclei fraction (SkMel28) [%] | cleaved PARP positive nuclei fraction (SkMel2) [%] | cleaved PARP positive nuclei fraction (SkMel30) [%] | cleaved PARP positive nuclei fraction (SkMel5) [%] | cleaved PARP positive nuclei fraction (UACC257) [%] | cleaved PARP positive nuclei fraction (UACC62) [%]
# CS(=O)(=O)c1ccc(C(=O)Nc2ccc(Cl)c(-c3ccccn3)c2)c(Cl)c1 [vismodegib] + Cn1cc(/C=C2\C(=O)Nc3cccnc32)c2ccccc21 [GW441756] (first compound 1 µM, partner dose 0.4 µM) as listed: 70.2 | 19.7 | 136 | 54.5 | 67.2 | 41.3 | 188 | 94.2 | 226 | 106
# COc1ccc(C2=N[C@@H](c3ccc(Cl)cc3)[C@@H](c3ccc(Cl)cc3)N2C(=O)N2CCNC(=O)C2)c(OC(C)C)c1 [Nutlin-3] + Cc1ccc(NC(=O)c2cccc(N(C)C)c2)cc1NC(=O)c1ccc(O)cc1 [ZM336372] (first compound 0.1 µM, partner dose 2 µM) as listed: 66 | 49.6 | 70.3 | 148 | 181 | 62.6 | 61.2 | 69.7 | 112 | 196
